Data: the supplement of paper PMC12067093, “Discovery and optimisation of a covalent ligand for TRIM25 and its application to targeted protein ubiquitination” (Chemical Science, 2025)
The list shows a part of the results.

Amino acid sequences for entries named in this document (tags omitted). A change or cut given only in a name is not applied to a line headed by its entry.
UniProt Q15061: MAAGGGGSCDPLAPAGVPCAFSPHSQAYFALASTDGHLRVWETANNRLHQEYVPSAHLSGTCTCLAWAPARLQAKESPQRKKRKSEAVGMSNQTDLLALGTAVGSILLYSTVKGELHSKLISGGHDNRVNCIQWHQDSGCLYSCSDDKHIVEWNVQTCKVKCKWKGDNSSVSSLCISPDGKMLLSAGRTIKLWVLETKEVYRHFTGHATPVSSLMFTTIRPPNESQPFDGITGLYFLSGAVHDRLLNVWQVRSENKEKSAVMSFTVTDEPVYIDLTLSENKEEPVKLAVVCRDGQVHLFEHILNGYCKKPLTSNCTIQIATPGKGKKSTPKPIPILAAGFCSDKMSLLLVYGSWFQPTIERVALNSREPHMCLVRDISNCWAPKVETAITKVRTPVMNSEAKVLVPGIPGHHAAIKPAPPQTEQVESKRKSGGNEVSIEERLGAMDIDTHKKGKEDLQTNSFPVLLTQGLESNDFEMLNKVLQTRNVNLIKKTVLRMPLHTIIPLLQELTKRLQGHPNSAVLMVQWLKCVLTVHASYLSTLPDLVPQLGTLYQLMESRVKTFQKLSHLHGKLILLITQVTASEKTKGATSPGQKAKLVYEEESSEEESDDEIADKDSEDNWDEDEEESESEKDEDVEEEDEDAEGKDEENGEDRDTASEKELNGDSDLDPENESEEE
UniProt Q9NNW5: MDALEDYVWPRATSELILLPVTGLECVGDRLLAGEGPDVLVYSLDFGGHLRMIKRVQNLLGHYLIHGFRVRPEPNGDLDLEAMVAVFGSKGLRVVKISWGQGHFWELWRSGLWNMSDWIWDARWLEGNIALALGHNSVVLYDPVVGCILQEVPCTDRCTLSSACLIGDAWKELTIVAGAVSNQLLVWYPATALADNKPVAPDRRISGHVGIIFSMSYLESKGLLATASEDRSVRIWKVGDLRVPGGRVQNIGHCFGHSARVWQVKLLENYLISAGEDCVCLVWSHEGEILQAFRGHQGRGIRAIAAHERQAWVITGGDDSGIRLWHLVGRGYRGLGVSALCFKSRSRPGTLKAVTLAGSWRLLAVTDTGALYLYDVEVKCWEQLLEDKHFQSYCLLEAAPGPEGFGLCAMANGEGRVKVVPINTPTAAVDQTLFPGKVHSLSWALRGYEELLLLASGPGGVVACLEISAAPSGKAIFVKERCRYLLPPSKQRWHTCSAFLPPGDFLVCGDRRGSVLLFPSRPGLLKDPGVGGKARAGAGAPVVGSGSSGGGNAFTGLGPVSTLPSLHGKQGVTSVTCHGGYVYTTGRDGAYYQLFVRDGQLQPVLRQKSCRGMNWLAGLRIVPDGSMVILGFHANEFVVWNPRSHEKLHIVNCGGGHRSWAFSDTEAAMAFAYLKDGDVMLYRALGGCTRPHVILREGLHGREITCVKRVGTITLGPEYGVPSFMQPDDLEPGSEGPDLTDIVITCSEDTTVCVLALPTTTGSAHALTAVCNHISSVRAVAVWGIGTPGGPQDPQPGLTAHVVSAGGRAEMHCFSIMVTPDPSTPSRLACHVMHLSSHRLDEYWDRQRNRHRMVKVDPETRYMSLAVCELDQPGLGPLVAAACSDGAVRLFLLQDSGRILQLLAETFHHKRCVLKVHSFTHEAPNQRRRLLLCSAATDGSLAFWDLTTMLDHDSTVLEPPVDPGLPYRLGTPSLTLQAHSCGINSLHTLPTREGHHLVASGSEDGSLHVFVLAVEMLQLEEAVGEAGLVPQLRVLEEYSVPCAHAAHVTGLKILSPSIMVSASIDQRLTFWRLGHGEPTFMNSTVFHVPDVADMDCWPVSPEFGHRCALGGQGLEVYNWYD

Legend:
[1] = molecular target: WDR43_Q15061_158_HIVEWNVQTCK (UniProt Q15061); experiment: probe-labelled cysteine peptide fold change vs DMSO (competition) (log2 fold change); higher = less target engagement (more negative = stronger competition); conditions: THP-1, incubation time: 4 h
[2] = molecular target: WDR6_Q9NNW5_653_LHIVNCGGGHR (UniProt Q9NNW5); experiment: as above; conditions: THP-1, incubation time: 4 h
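Further: competitive chemoproteomic profiling in live THP-1 cells with an iodoacetamide desthiobiotin (IA-DTB) probe, comparing probe-labelled peptide intensities in compound-treated cells against DMSO-treated controls.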

CC1Cc2ccccc2N1C(=O)C1CCCN(C(=O)CCl)C1 (mixture of isomers) [TRIM25 ligand 11 (diastereomer mixture)]
probe-labelled cysteine peptide fold change ([1]; 10 µM): 0.0869
probe-labelled cysteine peptide fold change ([1]; 50 µM): 0.135
probe-labelled cysteine peptide fold change ([2]; 10 µM): -0.043
probe-labelled cysteine peptide fold change ([2]; 50 µM): 0.18
